Reference: paper PMC7862700
The entries are a selection whose mix differs from that of the whole data set. At the low end of the ranking the order means little.

By UniProt entry, the sequences of proteins in these tests, tags left out. Where a name states a change or a piece, a line headed by the entry shows the natural chain unless it says otherwise.
UniProt O43186: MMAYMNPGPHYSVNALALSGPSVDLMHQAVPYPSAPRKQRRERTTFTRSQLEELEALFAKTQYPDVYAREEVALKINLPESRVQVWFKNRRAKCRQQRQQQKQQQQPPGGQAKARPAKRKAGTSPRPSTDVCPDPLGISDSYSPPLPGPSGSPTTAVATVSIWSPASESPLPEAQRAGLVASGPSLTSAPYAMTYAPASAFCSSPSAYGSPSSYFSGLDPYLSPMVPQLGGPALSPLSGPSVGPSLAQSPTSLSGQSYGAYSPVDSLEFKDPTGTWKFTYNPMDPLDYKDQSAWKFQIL

Each sequence was assayed against T1, FEV (UniProt Q99581) (assay: DAPPL (digital affinity profiling via proximity ligation, sequencing)). Details: 10 mM Tris-HCl pH 7.5, 50 mM NaCl, 1 mM DTT, 4% glycerol, room temperature, 30 min; GST-TFs on glutathione beads, 16-mer random dsDNA library, 0.1% …; high values mean tight binding; double strand, one strand shown; scale: fold enrichment (6-mer frequency, TF over GST control).
T1 sequence: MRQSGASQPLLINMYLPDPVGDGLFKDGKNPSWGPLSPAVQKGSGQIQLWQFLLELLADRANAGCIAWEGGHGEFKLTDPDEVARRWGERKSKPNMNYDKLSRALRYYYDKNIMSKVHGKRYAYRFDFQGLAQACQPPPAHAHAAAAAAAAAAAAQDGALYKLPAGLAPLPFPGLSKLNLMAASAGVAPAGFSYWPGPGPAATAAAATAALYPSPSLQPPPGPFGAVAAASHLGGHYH
CGCAGG was tested, and the binding signal was 0.834. Work on CGGTGC yielded a binding signal of 0.741. TGAGAG showed a binding signal of 0.555. GCGGAG was tested, and the binding signal was 0.243. In the case of GGGAAT, the binding signal is reported as 0.77. With GATGTG the binding signal was 0.998. In the case of GTACCG, the binding signal is reported as 0.85. With GCCGGT the binding signal was 0.679. GGTTCG showed a binding signal of 0.8. In the case of GAGGTC, the binding signal is reported as 0.567. CAGTCG was tested, and the binding signal was 0.162. For CACCGT, the binding signal was 0.633. In the case of CTGGGA, the binding signal is reported as 0.797. Sequence GAGAGT has a binding signal of 0.338. AAGGGG was tested, and the binding signal was 0.926. GCAGAG gave a binding signal of 0.658. For GGAACG, the binding signal was 0.622. For CACCAG, the binding signal was 0.731. GGAGTA gave a binding signal of 0.341. AGTTAG gave a binding signal of 0.843. With AGTCGC the binding signal was 0.509. ACACAG gave a binding signal of 0.932. For ACGGGA, the binding signal was 0.536. Sequence GGGAAC has a binding signal of 0.635. AACCGT gave a binding signal of 0.518. AAACGT gave a binding signal of 0.922. AGCGGG gave a binding signal of 0.489. For GAGCCG, the binding signal was 0.425. ACGTGT gave a binding signal of 0.656. Sequence GTACGG has a binding signal of 0.849. With CGCTGA the binding signal was 0.841. GTGTAT showed a binding signal of 0.888. Work on TGCAGG yielded a binding signal of 0.969. For AGTCGA, the binding signal was 0.403. GGCATC was tested, and the binding signal was 0.879. GATCGG gave a binding signal of 0.484. AGGCGC was tested, and the binding signal was 0.563. GGACGG was tested, and the binding signal was 0.538. GAGAAC was tested, and the binding signal was 0.39.

These sequences were tested against CRX (UniProt O43186) in the same assay as above. Details: 10 mM Tris-HCl pH 7.5, 50 mM NaCl, 1 mM DTT, 4% glycerol, room temperature, 30 min; GST-TFs on glutathione beads, 16-mer random dsDNA library, 0.1% …; high values mean tight binding; double strand, one strand shown; scale: fold enrichment (6-mer frequency, TF over GST control).
In the case of CGCAGG, the binding signal is reported as 0.697. In the case of CGGTGC, the binding signal is reported as 0.507. Work on TGAGAG yielded a binding signal of 0.538. With GCGGAG the binding signal was 0.216. GGGAAT showed a binding signal of 0.902. GATGTG was tested, and the binding signal was 0.646. Sequence GTACCG has a binding signal of 0.434. Sequence GCCGGT has a binding signal of 0.498. GGTTCG showed a binding signal of 0.649. For GAGGTC, the binding signal was 0.415. In the case of CAGTCG, the binding signal is reported as 0.147. Sequence CACCGT has a binding signal of 0.494. For CTGGGA, the binding signal was 0.842. With GAGAGT the binding signal was 0.312. For AAGGGG, the binding signal was 0.915. In the case of GCAGAG, the binding signal is reported as 0.561. In the case of GGAACG, the binding signal is reported as 0.46. CACCAG gave a binding signal of 0.634. GGAGTA showed a binding signal of 0.32. Work on AGTTAG yielded a binding signal of 0.747. AGTCGC gave a binding signal of 0.407. ACACAG showed a binding signal of 0.732. ACGGGA was tested, and the binding signal was 0.459. GGGAAC was tested, and the binding signal was 0.496. In the case of AACCGT, the binding signal is reported as 0.48. With AAACGT the binding signal was 0.792. Sequence AGCGGG has a binding signal of 0.447. GAGCCG gave a binding signal of 0.361. ACGTGT showed a binding signal of 0.475. For GTACGG, the binding signal was 0.602. In the case of CGCTGA, the binding signal is reported as 0.799. With GTGTAT the binding signal was 0.767. For TGCAGG, the binding signal was 0.812. AGTCGA was tested, and the binding signal was 0.373. GGCATC showed a binding signal of 0.654. With GATCGG the binding signal was 0.51. AGGCGC showed a binding signal of 0.493. For GGACGG, the binding signal was 0.36. Sequence GAGAAC has a binding signal of 0.411.

What follows are sequences tested against T2, ELF5 (UniProt Q9UKW6-2) in the same assay as above. Details: 10 mM Tris-HCl pH 7.5, 50 mM NaCl, 1 mM DTT, 4% glycerol, room temperature, 30 min; GST-TFs on glutathione beads, 16-mer random dsDNA library, 0.1% …; high values mean tight binding; double strand, one strand shown; scale: fold enrichment (6-mer frequency, TF over GST control).
T2 sequence: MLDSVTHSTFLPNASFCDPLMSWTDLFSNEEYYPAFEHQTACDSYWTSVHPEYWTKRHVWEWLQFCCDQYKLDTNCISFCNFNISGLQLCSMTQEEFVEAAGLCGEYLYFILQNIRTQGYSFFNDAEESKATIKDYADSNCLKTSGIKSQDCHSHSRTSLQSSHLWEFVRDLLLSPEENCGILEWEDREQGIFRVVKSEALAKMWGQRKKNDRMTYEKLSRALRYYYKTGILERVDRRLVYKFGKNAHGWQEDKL
For CGCAGG, the binding signal was 0.842. CGGTGC showed a binding signal of 0.656. In the case of TGAGAG, the binding signal is reported as 0.574. GCGGAG gave a binding signal of 0.235. For GGGAAT, the binding signal was 0.793. GATGTG showed a binding signal of 0.935. GTACCG showed a binding signal of 0.757. With GCCGGT the binding signal was 0.583. GGTTCG gave a binding signal of 0.801. GAGGTC was tested, and the binding signal was 0.565. CAGTCG was tested, and the binding signal was 0.16. For CACCGT, the binding signal was 0.594. With CTGGGA the binding signal was 0.84. In the case of GAGAGT, the binding signal is reported as 0.344. AAGGGG was tested, and the binding signal was 0.966. Work on GCAGAG yielded a binding signal of 0.623. GGAACG showed a binding signal of 0.652. In the case of CACCAG, the binding signal is reported as 0.705. Sequence GGAGTA has a binding signal of 0.346. With AGTTAG the binding signal was 0.825. Work on AGTCGC yielded a binding signal of 0.511. ACACAG gave a binding signal of 0.866. For ACGGGA, the binding signal was 0.616. Sequence GGGAAC has a binding signal of 0.743. Work on AACCGT yielded a binding signal of 0.481. With AAACGT the binding signal was 0.965. For AGCGGG, the binding signal was 0.465. For GAGCCG, the binding signal was 0.37. ACGTGT showed a binding signal of 0.635. GTACGG showed a binding signal of 0.868. CGCTGA showed a binding signal of 0.808. Sequence GTGTAT has a binding signal of 0.909. Sequence TGCAGG has a binding signal of 0.991. Sequence AGTCGA has a binding signal of 0.396. In the case of GGCATC, the binding signal is reported as 0.814. GATCGG gave a binding signal of 0.435. AGGCGC was tested, and the binding signal was 0.536. GGACGG gave a binding signal of 0.554. GAGAAC showed a binding signal of 0.377.
